Measured values published in PMC10173541.
Results are given in words; binding and its absence hold for the method and conditions named. In cells and extracts the contact can be indirect. Here binding means that the protein was enriched with, or labelled near, the bait; the list need not be complete.

Amino acid sequences for entries named in this document (tags omitted).
UniProt Q8BWG8: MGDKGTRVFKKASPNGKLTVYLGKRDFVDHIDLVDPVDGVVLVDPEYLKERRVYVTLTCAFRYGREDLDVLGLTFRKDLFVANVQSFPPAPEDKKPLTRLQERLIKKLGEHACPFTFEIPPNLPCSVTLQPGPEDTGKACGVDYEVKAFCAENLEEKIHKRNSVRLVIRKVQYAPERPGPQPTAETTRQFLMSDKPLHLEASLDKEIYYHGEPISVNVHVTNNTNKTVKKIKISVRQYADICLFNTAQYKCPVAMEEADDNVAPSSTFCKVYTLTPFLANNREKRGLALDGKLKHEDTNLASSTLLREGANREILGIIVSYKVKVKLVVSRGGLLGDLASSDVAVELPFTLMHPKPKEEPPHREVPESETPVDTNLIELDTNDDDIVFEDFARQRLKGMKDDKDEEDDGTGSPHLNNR
UniProt Q8K1M6: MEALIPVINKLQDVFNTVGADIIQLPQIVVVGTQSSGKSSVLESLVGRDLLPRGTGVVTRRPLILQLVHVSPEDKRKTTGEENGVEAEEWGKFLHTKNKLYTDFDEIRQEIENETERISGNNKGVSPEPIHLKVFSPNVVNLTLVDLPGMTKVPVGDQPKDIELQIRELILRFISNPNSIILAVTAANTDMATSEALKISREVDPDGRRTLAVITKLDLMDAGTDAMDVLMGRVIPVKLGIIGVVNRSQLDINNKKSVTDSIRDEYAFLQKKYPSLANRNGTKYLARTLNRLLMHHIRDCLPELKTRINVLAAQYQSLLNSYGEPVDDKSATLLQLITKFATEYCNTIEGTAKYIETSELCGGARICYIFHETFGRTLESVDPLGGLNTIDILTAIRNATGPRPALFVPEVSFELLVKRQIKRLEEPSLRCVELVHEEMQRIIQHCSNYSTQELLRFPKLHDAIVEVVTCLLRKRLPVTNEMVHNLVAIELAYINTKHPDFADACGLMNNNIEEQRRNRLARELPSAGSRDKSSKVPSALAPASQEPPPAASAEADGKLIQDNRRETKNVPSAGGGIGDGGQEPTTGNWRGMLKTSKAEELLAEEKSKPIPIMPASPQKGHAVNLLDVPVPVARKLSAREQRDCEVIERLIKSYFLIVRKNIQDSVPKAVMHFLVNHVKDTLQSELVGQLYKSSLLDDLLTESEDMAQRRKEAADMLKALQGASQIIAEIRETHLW

Target: β-arrestin1 (mouse (endogenous in primary astrocytes)) (UniProt Q8BWG8)
Test: affinity purification with mass spectrometry; β-arrestin1 pulled down, bound proteins detected by label-free mass spectrometry; source of the sample not stated

dynamin-related protein 1 (Drp1) (from UniProt Q8K1M6 1-736)
binding: binds
